T1: FLAG tagged HP1c (Drosophila) (UniProt Q9VCU6)
T1 sequence: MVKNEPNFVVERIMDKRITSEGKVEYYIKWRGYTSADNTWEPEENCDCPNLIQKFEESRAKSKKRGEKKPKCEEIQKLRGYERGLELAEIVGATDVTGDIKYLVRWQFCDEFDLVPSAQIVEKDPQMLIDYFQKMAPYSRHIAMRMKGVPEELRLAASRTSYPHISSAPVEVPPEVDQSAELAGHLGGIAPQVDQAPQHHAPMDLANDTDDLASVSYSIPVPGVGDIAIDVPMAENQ

B1: HP1b (protein, UniProt Q9W396 1-240)
chain: MAEFSVERVEDKRTVNGRTEYYLKWKGYPRSENTWEPVENLDCPDLIANFEESLKNNKKETKKRLSTSSTPESIRSKRKSFLEDDTEEQKKLIGFERGLEASKILGATDSSGHLMFLMKWKGSDHADLVPAKLANTRCPQVVIQFYEERLTWHTGSGNGNGNTNSVNLGSSGGLGSVGGSGAGDDTAPGSVGTTGGGSNIDGGDEEDPEPASPIGSINQDENIKPDESSELDNGQPDADD
B2: ACF1 (protein, UniProt Q9V9T4 1-1476)
chain: MPICKREGFDLNQKEGKNETFHDNDQVFCCYITKRIFRDYEHYFRHVMVINSTVWQCEATGKENLTYEEAVKSERAARKKMEQFKQSLRAPVLLVVEHAQQSAVNTLNMIVAKFLRKRYFIGEEVSVQAKKNATYTVLGVKLDKNMPEPLNGIYEDTDNLVYRLRPNKGDPSAELDLPFRQLRRSRMEFNLENLSMFIKSNVSRVDGLLRPKPEAYKQYVTDPGVNFSTIFIGKMPRYSPAKIKKPDGKKQSTLNKYIVAGEATAAKSKAKAKSDAKSLAEELERVKREKEAKLIELEKQKAEKKAQLIERVENECNLLLQKTDDLERTDQKVLPRYRQIVTLLPEHLLGDAFMMREFMHTYTGLLSGIEVFRQNLSFYEMTRALTAREIAGPLSDILLVLLGTVFDLQKEEEEECAVTYLDRAAQTQEPYWSMAQAAKSHLYAKRHFSFKVNELPLDALTLSEVLRLHLLGSGAFVNEKAERWRVMYRNGYSSKEDPGLELRLEHSHILRILKNHSVYQLKFKDIMLLIRCLMSQIMTYSGTINLIEERMEQTAKARQDLRALVVGENKRLAAVEINRKKLTQMHHLEVNGVEPEKREALVEKLKKSIAELHAQSDQQHRKHELQMLKLHSQLFNFLVYLGMDRCYRKYYVLESMPGIFVEHSPDSLDTCLEQPITNKSQIEIRQQSALPKNRKDLRVYLLKLYGDDEKKTKKKAKHSLENKENQEHRLNGSAEPMDVESDSPEAPTHFELLMCSGDKRSCIVHDSRNGQRQRWAYIYKAEEIDELIKALNPNGLREYELLQELSVLRSLIEQHAKTCPVDLLSLENETMRKKFMAAMESETNRKYGEANFGLPNGTDLNEVMRLHLVDRIIQFENDIYTGDLGRLKVKDMEKWRSDLLGGNYDAQCKLQWGPGGKLEDEAGSDNESHETHEEDDGALLGKYARKPYRDPGMYLAASADTKPLPDSDDEEDQHTNAVSIPIAVHNMASALLQVEQAIGKRFLKEPYGMKKWDPKQEALKLACDSRLHQWEVSLMESTSFAQVFLHLNILHDCIQWRRSTNKSLCKVCRRGSDPEKMLLCDECNAGTHMFCLKPKLRSVPPGNWYCNDCVKSLGLSNGQNEKDKKQATKKKRKFIVEEEDDEATDEEEEEKKDDDMTDEDAEHENEKHDEDVEDDESVTSTPSSSRVNGRILRRPRTRPTSRRLTSKEIEEHAQEDVDSGDVSDDASLTAGEDTIEDESDEEKVCQKCFYDGGEIKCVQCRLFFHLECVHLKRPPRTDFVCKTCKPMPQRPRRRHSNMNGDHDRDEEEPKAKRPRNSLRLSIDKTARPSNGNNNNNNNNSSVNNNNHRRSGRRTNEHMPLNSAALYDLLEQIMKHKAAWPFLRPVLTSEVPDYHQIIKTPMDLAKIKSKLNMGAYQLNEELLSDIQLVFRNCDLYNVEGNEIYDAGCQLERFVIDRCRDMQLPFRPSDMNGEVKAC
B3: Ubiquilin (protein, UniProt Q9VWD9 1-547)
chain: MAEGGSKRINVVVKTPKDKKTVEVDEDSGIKDFKILVAQKFEAEPEQLVLIFAGKIMKDTDTLQMHNIKDNLTVHLVIKAPTRNNEQPARQPADVRQTPFGLNQFGGLAGMEALGAGSNTFMDLQARMQNELLNNGDMLRSLMDNPMVQQMMNNPDTMRQLITSNPQMHDLMQRNPEISHMLNNPDLLRQTMELARNPSMLQELMRSHDRAMSNLESVPGGYSALQRIYRDIQEPMMNAATESFGRNPFAGLVDGGGSGAGNNPQQGTENRNPLPNPWGGANSGTNGTVGGSGAGNPTGDLPPNNVLNTPAMRSLLQQMADNPAMMQNLLNAPYTRSMMESMSQDPDMAARLLSSSPLMSNNPALQEQVRQMMPQFMAQMQNPEVMNMLTNPDAMNAILQIQQGMEQLRSAAPGLVGTLGIPPPPPGAGTGTNPASGDGSGGNSGASTNNVSPSSGLNAGTGTPNLAPGGGPNAQLFNDFMMRMLNGMSNNADNTQPPEVRYQSQLEQLNAMGFVNRDANLQALIATFGDINAAVERLLSLNQLSLS

Results are given in words; binding and its absence hold for the method and conditions named. In cells and extracts the contact can be indirect. Here binding means that the protein was enriched with, or labelled near, the bait; the list need not be complete. A no says only that the protein was not detected with the bait. Where a sequence is shown, tags or fusion partners need not be part of it.

This test has as its target T1, FLAG tagged HP1c (Drosophila). In words: affinity purification with mass spectrometry; nuclear extract of SL2 cells stably expressing HP1cFLAG on M2 anti-FLAG agarose, 2 hours at 4°C, washed with CB300, eluted with FLAG-peptide, SDS-PAGE, GeLC MS/MS and LC MS/MS; non-transfected cells as control.
With B1, the binding result was “binds”. The same measure for B2: “no binding”; for B3: “binds”.
